Measured values reported in the supplement of paper PMC4604168 (melanoma cell lines).
The list shows a part of the results. Many values rest on one well or one pass, so single values are uncertain.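 Cells were imaged in 1,536-well plates, and nuclei stained with an antibody against cleaved PARP were counted against all DNA-stained nuclei to give the apoptosis fraction. Screening doses were chosen to leave most cells alive, and resting and induced cleaved-PARP levels differ strongly between cell lines.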

Tested on: CBRC014 (line from a melanoma biopsy)
Test: cleaved PARP positive nuclei fraction relative to DMSO control; melanoma cells; higher = more apoptosis
Details: library dose: low library concentration; 72 h

Compound	cleaved PARP positive nuclei fraction [%]
Nc1nc(F)nc2c1ncn2[C@@H]1O[C@H](CO)[C@@H](O)[C@@H]1O [fludarabine] + COc1ccc(-c2ccc3c(N4CCOCC4)nc(N4C[C@@H](C)O[C@@H](C)C4)nc3n2)cc1CO [KU0063794] (first compound 0.2 µM, partner dose 0.02 µM)	101
CS(=O)(=O)CCNCc1ccc(-c2ccc3ncnc(Nc4ccc(OCc5cccc(F)c5)c(Cl)c4)c3c2)o1 [lapatinib] + O=C(Nc1ccccc1)c1cc([N+](=O)[O-])ccc1Cl [GW9662] (first compound 0.8 µM, partner dose 2 µM)	87
C=C(c1ccc(C(=O)O)cc1)c1cc2c(cc1C)C(C)(C)CCC2(C)C [Bexarotene] + CCc1ccc(CCOc2ccc(CC3SC(=O)NC3=O)cc2)nc1 [pioglitazone] (first compound 2 µM, partner dose 2 µM)	86.7
C=C(c1ccc(C(=O)O)cc1)c1cc2c(cc1C)C(C)(C)CCC2(C)C [Bexarotene] + c1cc(-c2cnn3cc(-c4ccc(OCCN5CCCCC5)cc4)cnc23)ccn1 [Dorsomorphin] (first compound 2 µM, partner dose 0.4 µM)	139
CS(=O)(=O)CCNCc1ccc(-c2ccc3ncnc(Nc4ccc(OCc5cccc(F)c5)c(Cl)c4)c3c2)o1 [lapatinib] + COc1cc(N2CCC(N3CCN(C)CC3)CC2)ccc1Nc1ncc(Cl)c(Nc2ccccc2S(=O)(=O)C(C)C)n1 [NVP-TAE684] (first compound 0.8 µM, partner dose 0.08 µM)	87.1
CNC(=O)c1cc(Oc2ccc(NC(=O)Nc3ccc(Cl)c(C(F)(F)F)c3)cc2)ccn1 [sorafenib] + CCN(CC)CCCCNc1ncc2cc(-c3cc(OC)cc(OC)c3)c(NC(=O)NC(C)(C)C)nc2n1 [PD173074] (first compound 0.4 µM, partner dose 0.1 µM)	83.3
CO[C@H]1C[C@@H]2CC[C@@H](C)[C@@](O)(O2)C(=O)C(=O)N2CCCC[C@H]2C(=O)O[C@H]([C@H](C)C[C@@H]2CC[C@@H](OCCO)[C@H](OC)C2)CC(=O)[C@H](C)/C=C(\C)[C@@H](O)[C@@H](OC)C(=O)[C@H](C)C[C@H](C)/C=C/C=C/C=C/1C [everolimus] + O=C1NC(=O)/C(=C/c2ccc(-c3ccc(F)cc3O)o2)S1 [AS252424] (first compound 0.02 µM, partner dose 1 µM)	102

Tested on: CBRC016 (line from a melanoma biopsy)
Test: as above
Details: library dose: low library concentration; 72 h

Compound	cleaved PARP positive nuclei fraction [%]
Nc1ccn([C@@H]2O[C@H](CO)[C@@H](O)C2(F)F)c(=O)n1 [gemcitabine] + O=S(=O)(c1ccccc1)N(CC(F)(F)F)c1ccc(C(O)(C(F)(F)F)C(F)(F)F)cc1 [T0901317] (first compound 0.0004 µM, partner dose 1.4 µM)	93.8
Nc1ncn([C@H]2C[C@H](O)[C@@H](CO)O2)c(=O)n1 [decitabine] + O=C(Nc1ccccc1)c1cc([N+](=O)[O-])ccc1Cl [GW9662] (first compound 0.1 µM, partner dose 2 µM)	109
Nc1nc(F)nc2c1ncn2[C@@H]1O[C@H](CO)[C@@H](O)[C@@H]1O [fludarabine] + Cn1cc(/C=C2\C(=O)Nc3cccnc32)c2ccccc21 [GW441756] (first compound 0.2 µM, partner dose 0.4 µM)	129
Nc1ccn([C@@H]2O[C@H](CO)[C@@H](O)C2(F)F)c(=O)n1 [gemcitabine] + CCN(CC)CCCCNc1ncc2cc(-c3cc(OC)cc(OC)c3)c(NC(=O)NC(C)(C)C)nc2n1 [PD173074] (first compound 0.0004 µM, partner dose 0.1 µM)	69.7
CCCS(=O)(=O)Nc1ccc(F)c(C(=O)c2c[nH]c3ncc(Cl)cc23)c1F + COc1ccc(COc2ccc(Cc3cnc(N)nc3N)cc2OC)cc1 [GW2580] (first compound 0.08 µM, partner dose 1 µM)	49.5
Nc1ccn([C@@H]2O[C@H](CO)[C@@H](O)C2(F)F)c(=O)n1 [gemcitabine] + CCc1ccc(CCOc2ccc(CC3SC(=O)NC3=O)cc2)nc1 [pioglitazone] (first compound 0.0004 µM, partner dose 2 µM)	115
Nc1ncn([C@H]2C[C@H](O)[C@@H](CO)O2)c(=O)n1 [decitabine] + Oc1cc(-c2nc(-c3ccccc3)[nH]c2-c2ccncc2)ccc1Cl [L779450] (first compound 0.1 µM, partner dose 0.2 µM)	25.5
CNC(=O)c1cc(Oc2ccc(NC(=O)Nc3ccc(Cl)c(C(F)(F)F)c3)cc2)ccn1 [sorafenib] + Cc1cc([N+](=O)[O-])ccc1NS(=O)(=O)c1cc(Cl)ccc1Cl [FH535] (first compound 0.4 µM, partner dose 1 µM)	448
O=C(O)c1ccc2c(c1)nc(Nc1cccc(Cl)c1)c1ccncc12 + N#Cc1c(O)c2c(-c3ccc(-c4ccccc4O)cc3)csc2[nH]c1=O [A769662] (first compound 0.4 µM, partner dose 2 µM)	79.7
Nc1ccn([C@@H]2O[C@H](CO)[C@@H](O)C2(F)F)c(=O)n1 [gemcitabine] + COc1ccc(COc2ccc(Cc3cnc(N)nc3N)cc2OC)cc1 [GW2580] (first compound 0.0004 µM, partner dose 1 µM)	95.3
Nc1ncn([C@H]2C[C@H](O)[C@@H](CO)O2)c(=O)n1 [decitabine] + O=C1NC(=O)/C(=C/c2ccc(-c3ccc(F)cc3O)o2)S1 [AS252424] (first compound 0.1 µM, partner dose 1 µM)	31.6
CCCS(=O)(=O)Nc1ccc(F)c(C(=O)c2c[nH]c3ncc(Cl)cc23)c1F + Cn1cc(/C=C2\C(=O)Nc3cccnc32)c2ccccc21 [GW441756] (first compound 0.08 µM, partner dose 0.4 µM)	58.1
Cc1cc(Nc2cc(N3CCN(C)CC3)nc(/C=C/c3ccccc3)n2)n[nH]1 + O=c1cc(-c2cccc3c2Sc2ccccc2S3)oc(N2CCOCC2)c1 [KU55933] (first compound 0.04 µM, partner dose 1 µM)	66.7
Cn1c(=O)n(-c2ccc(C(C)(C)C#N)cc2)c2c3cc(-c4cnc5ccccc5c4)ccc3ncc21 + COc1cc2ncnc(Nc3ccc(Oc4ccccc4)cc3)c2cc1OC [SrcI1] (first compound 0.004 µM, partner dose 2 µM)	19.5
Cc1cc(Nc2cc(N3CCN(C)CC3)nc(/C=C/c3ccccc3)n2)n[nH]1 + O=S(=O)(c1ccccc1)N(CC(F)(F)F)c1ccc(C(O)(C(F)(F)F)C(F)(F)F)cc1 [T0901317] (first compound 0.04 µM, partner dose 1.4 µM)	40.2
CCCS(=O)(=O)Nc1ccc(F)c(C(=O)c2c[nH]c3ncc(Cl)cc23)c1F + O=C1NC(=O)/C(=C/c2ccc(-c3ccc(F)cc3O)o2)S1 [AS252424] (first compound 0.08 µM, partner dose 1 µM)	40
Cn1c(=O)n(-c2ccc(C(C)(C)C#N)cc2)c2c3cc(-c4cnc5ccccc5c4)ccc3ncc21 + CC(C)CCN1c2nc(Nc3cc(F)c(O)c(F)c3)ncc2N(C)C(=O)C1C [BID1870] (first compound 0.004 µM, partner dose 0.2 µM)	7070
CN1CCN(c2ccc3nc(-c4c(N)c5c(F)cccc5[nH]c4=O)[nH]c3c2)CC1 [Dovitinib] + Oc1cc(-c2nc(-c3ccccc3)[nH]c2-c2ccncc2)ccc1Cl [L779450] (first compound 0.1 µM, partner dose 0.2 µM)	44
Nc1nc(F)nc2c1ncn2[C@@H]1O[C@H](CO)[C@@H](O)[C@@H]1O [fludarabine] + COc1cc(N2CCC(N3CCN(C)CC3)CC2)ccc1Nc1ncc(Cl)c(Nc2ccccc2S(=O)(=O)C(C)C)n1 [NVP-TAE684] (first compound 0.2 µM, partner dose 0.08 µM)	32
Nc1ncn([C@H]2C[C@H](O)[C@@H](CO)O2)c(=O)n1 [decitabine] + COc1ccc(-c2ccc3c(N4CCOCC4)nc(N4C[C@@H](C)O[C@@H](C)C4)nc3n2)cc1CO [KU0063794] (first compound 0.1 µM, partner dose 0.02 µM)	129
CCCS(=O)(=O)Nc1ccc(F)c(C(=O)c2c[nH]c3ncc(Cl)cc23)c1F + Oc1cc(-c2nc(-c3ccccc3)[nH]c2-c2ccncc2)ccc1Cl [L779450] (first compound 0.08 µM, partner dose 0.2 µM)	39
C=C(c1ccc(C(=O)O)cc1)c1cc2c(cc1C)C(C)(C)CCC2(C)C [Bexarotene] + CCCCCCCCCCCC1=C(O)C(=O)C=C(O)C1=O [Embelin] (first compound 2 µM, partner dose 1.2 µM)	64.8
O=C(O)c1ccc2c(c1)nc(Nc1cccc(Cl)c1)c1ccncc12 + Oc1nc(-c2ccc(C(F)(F)F)cc2)nc2c1CSCC2 [XAV939] (first compound 0.4 µM, partner dose 2 µM)	98.2
C=C(c1ccc(C(=O)O)cc1)c1cc2c(cc1C)C(C)(C)CCC2(C)C [Bexarotene] + COC(=O)c1sccc1S(=O)(=O)Nc1ccc(Nc2ccccc2)cc1OC [GSK0660] (first compound 2 µM, partner dose 1 µM)	140

Shown bar-delimited: entries from further up.
Compound | cleaved PARP positive nuclei fraction [%]
Nc1nc(F)nc2c1ncn2[C@@H]1O[C@H](CO)[C@@H](O)[C@@H]1O [fludarabine] + Cn1cc(/C=C2\C(=O)Nc3cccnc32)c2ccccc21 [GW441756] (first compound 0.2 µM, partner dose 0.4 µM) | 129
Nc1ccn([C@@H]2O[C@H](CO)[C@@H](O)C2(F)F)c(=O)n1 [gemcitabine] + CCN(CC)CCCCNc1ncc2cc(-c3cc(OC)cc(OC)c3)c(NC(=O)NC(C)(C)C)nc2n1 [PD173074] (first compound 0.0004 µM, partner dose 0.1 µM) | 69.7
CCCS(=O)(=O)Nc1ccc(F)c(C(=O)c2c[nH]c3ncc(Cl)cc23)c1F + COc1ccc(COc2ccc(Cc3cnc(N)nc3N)cc2OC)cc1 [GW2580] (first compound 0.08 µM, partner dose 1 µM) | 49.5
Nc1ccn([C@@H]2O[C@H](CO)[C@@H](O)C2(F)F)c(=O)n1 [gemcitabine] + CCc1ccc(CCOc2ccc(CC3SC(=O)NC3=O)cc2)nc1 [pioglitazone] (first compound 0.0004 µM, partner dose 2 µM) | 115
Nc1ncn([C@H]2C[C@H](O)[C@@H](CO)O2)c(=O)n1 [decitabine] + Oc1cc(-c2nc(-c3ccccc3)[nH]c2-c2ccncc2)ccc1Cl [L779450] (first compound 0.1 µM, partner dose 0.2 µM) | 25.5
CNC(=O)c1cc(Oc2ccc(NC(=O)Nc3ccc(Cl)c(C(F)(F)F)c3)cc2)ccn1 [sorafenib] + Cc1cc([N+](=O)[O-])ccc1NS(=O)(=O)c1cc(Cl)ccc1Cl [FH535] (first compound 0.4 µM, partner dose 1 µM) | 448
O=C(O)c1ccc2c(c1)nc(Nc1cccc(Cl)c1)c1ccncc12 + N#Cc1c(O)c2c(-c3ccc(-c4ccccc4O)cc3)csc2[nH]c1=O [A769662] (first compound 0.4 µM, partner dose 2 µM) | 79.7
